The values that follow come from PMC6283417, “The structure of the RbBP5 β-propeller domain reveals a surface with potential nucleic acid binding sites”.

The chains behind the UniProt entries cited, without tags or fusion partners. Residues count along the entry.
UniProt Q8BX09, 1-340: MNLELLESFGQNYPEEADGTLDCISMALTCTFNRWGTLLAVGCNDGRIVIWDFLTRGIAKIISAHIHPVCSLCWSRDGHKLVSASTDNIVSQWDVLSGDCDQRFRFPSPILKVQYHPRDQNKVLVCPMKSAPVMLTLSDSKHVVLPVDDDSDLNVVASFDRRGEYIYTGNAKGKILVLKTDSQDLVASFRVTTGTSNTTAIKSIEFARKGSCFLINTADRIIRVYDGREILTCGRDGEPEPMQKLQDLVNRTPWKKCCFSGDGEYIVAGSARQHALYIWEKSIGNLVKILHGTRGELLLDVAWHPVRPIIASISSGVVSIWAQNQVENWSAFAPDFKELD
UniProt Q8BX09, 1-340 R162E: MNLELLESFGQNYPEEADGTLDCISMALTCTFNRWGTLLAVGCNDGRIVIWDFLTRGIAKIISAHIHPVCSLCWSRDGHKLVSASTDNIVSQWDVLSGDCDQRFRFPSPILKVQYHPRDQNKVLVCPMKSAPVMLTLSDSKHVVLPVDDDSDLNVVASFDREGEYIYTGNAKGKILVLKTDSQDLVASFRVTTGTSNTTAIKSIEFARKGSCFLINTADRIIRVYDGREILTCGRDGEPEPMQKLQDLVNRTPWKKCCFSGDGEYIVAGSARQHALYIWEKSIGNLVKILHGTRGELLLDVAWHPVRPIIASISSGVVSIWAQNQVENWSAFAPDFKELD
UniProt Q8BX09, 1-340 R220E: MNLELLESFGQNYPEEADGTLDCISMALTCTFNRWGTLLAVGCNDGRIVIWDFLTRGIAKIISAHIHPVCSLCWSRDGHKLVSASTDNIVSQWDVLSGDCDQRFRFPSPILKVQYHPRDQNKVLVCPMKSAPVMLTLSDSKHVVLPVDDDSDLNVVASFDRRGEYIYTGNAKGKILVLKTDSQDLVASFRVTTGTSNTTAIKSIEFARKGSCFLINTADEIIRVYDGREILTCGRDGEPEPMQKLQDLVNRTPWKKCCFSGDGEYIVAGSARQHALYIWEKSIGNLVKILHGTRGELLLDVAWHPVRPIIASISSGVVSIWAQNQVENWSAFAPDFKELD
UniProt Q8BX09, 1-340 R272E: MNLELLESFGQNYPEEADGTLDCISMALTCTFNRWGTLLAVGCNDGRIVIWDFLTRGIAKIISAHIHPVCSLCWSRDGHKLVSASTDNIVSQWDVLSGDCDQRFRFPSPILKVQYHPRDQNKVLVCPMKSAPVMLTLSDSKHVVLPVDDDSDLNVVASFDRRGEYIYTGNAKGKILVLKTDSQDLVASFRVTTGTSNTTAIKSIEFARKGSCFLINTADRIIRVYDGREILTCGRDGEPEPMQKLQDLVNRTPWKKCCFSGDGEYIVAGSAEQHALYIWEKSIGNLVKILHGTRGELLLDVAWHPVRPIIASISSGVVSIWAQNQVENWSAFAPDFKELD
UniProt Q8BX09, 1-340 R34E: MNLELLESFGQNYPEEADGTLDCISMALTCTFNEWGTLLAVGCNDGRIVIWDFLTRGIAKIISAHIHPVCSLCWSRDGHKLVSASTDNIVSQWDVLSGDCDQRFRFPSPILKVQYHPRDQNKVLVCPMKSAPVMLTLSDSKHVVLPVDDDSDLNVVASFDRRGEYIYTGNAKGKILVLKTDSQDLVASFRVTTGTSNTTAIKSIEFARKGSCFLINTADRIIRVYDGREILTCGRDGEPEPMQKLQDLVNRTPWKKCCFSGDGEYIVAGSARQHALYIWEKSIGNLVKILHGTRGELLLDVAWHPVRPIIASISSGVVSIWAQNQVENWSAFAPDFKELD

The exact form of at least one protein or probe is not confirmed.

Data set [1] addresses RbBP5 beta-propeller (1-340) wild type (mouse) (UniProt Q8BX09). Kind of data set: NMR Arg side-chain HSQC. To be noted: 4:1 NA:protein, recombinant protein, residues 1-340, protein details: 6xHis-SUMO removed by 3C protease.
The target is the same in data set [2]. Kind of data set: fluorescence anisotropy. Particulars: Anisotropy: 50 mM Tris pH 7.4, 150 mM NaCl, 0.5 mM DTT, 20 C, recombinant protein, residues 1-340, protein details: 6xHis-SUMO removed by 3C protease.
The target of data set [3] is RbBP5 (1-340) R162E (mouse) (UniProt Q8BX09). Kind of data set: fluorescence anisotropy. To be noted: Anisotropy: 50 mM Tris pH 7.4, 150 mM NaCl, 0.5 mM DTT, 20 C; recombinant protein; residues 1-340; protein details: 6xHis-SUMO removed by 3C protease. (Polarisation of emitted light reports the rotation of a fluorescent probe.)
Data set [4] concerns the target RbBP5 (1-340) R220E (mouse) (UniProt Q8BX09). Kind of data set: fluorescence anisotropy. To be noted: Anisotropy: 50 mM Tris pH 7.4, 150 mM NaCl, 0.5 mM DTT, 20 C; recombinant protein; residues 1-340; protein details: 6xHis-SUMO removed by 3C protease.
Data set [5] addresses RbBP5 (1-340) R272E (mouse) (UniProt Q8BX09). Kind of data set: fluorescence anisotropy. To be noted: Anisotropy: 50 mM Tris pH 7.4, 150 mM NaCl, 0.5 mM DTT, 20 C; recombinant protein; residues 1-340; protein details: 6xHis-SUMO removed by 3C protease.
The target of data set [6] is RbBP5 (1-340) R34E (mouse) (UniProt Q8BX09). Kind of data set: fluorescence anisotropy. Particulars: Anisotropy: 50 mM Tris pH 7.4, 150 mM NaCl, 0.5 mM DTT, 20 C; recombinant protein; residues 1-340; protein details: 6xHis-SUMO removed by 3C protease.

With “GCATAGGTTCGATC (double strand) [14-mer dsDNA (NMR)]”, the binding result in data set [1] (weakest effect) is given as “binds”.

“GCATAGGTTCGATC (double strand) [14-mer dsDNA-6FAM]”: in data set [2], the Kd (usually the free concentration of one partner at which half of the binding sites on the other are occupied at equilibrium, for simple one-to-one binding) amounted to 29.7 µM.

“GCAUAGGUUCGAUC / GAUCGAACCUAUGC [14-mer dsRNA (NMR)]”: in data set [1] (strongest effect), the binding result is “binds”.

“GCAUAGGUUCGAUC / GAUCGAACCUAUGC [14-mer dsRNA-6FAM]”: the Kd in data set [3] was 37.2 µM; in data set [4], 26.1 µM; in data set [5] it was 16.4 µM; in data set [6], 32.3 µM; in data set [2], 13.2 µM; in data set [2] (mutant series wild-type control), 15.7 µM.
